From US9987370B2 (priority 2012, dated 2018)
Where a sequence shows no end group, the ends are not given.

Assay: general procedure: Fmoc solid-phase peptide synthesis; Rink; HBTU/DIEA (automated); HATU/DIEA (manual)

## AcCGVQIVYKK (N-acetyl; PXL-buSS conjugate; Sup35 yeast prion fragment)
Conjugation step
  conjugation yield: 60%
  final HPLC purity: >98%

## GVQIVYKK
Whole synthesis
  final HPLC purity: >99%
